Measurements as given in US9029097.
Results are given in words; binding and its absence hold for the method and conditions named. Some entries that bind do so weakly or less than the wild type.

By UniProt entry, the sequences of proteins in these tests, tags left out. Where a name states a change or a piece, a line headed by the entry shows the natural chain unless it says otherwise. Residues count along the entry.
UniProt Q16602: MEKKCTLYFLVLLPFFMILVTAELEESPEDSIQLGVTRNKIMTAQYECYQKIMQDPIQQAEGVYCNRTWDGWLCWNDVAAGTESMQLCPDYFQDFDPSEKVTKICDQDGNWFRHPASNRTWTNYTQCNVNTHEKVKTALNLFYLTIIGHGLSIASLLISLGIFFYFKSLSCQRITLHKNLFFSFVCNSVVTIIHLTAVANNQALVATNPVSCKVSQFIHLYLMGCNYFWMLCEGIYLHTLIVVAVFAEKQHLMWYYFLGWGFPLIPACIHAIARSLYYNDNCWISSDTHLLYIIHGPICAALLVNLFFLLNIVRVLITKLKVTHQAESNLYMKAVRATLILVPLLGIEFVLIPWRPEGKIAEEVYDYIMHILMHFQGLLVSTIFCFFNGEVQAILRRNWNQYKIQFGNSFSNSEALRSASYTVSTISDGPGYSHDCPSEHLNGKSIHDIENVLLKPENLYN
UniProt O60894: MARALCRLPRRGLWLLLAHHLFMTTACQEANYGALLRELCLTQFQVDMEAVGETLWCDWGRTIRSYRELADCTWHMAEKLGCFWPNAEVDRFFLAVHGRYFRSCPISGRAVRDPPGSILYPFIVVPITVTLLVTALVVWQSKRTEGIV
UniProt P08913: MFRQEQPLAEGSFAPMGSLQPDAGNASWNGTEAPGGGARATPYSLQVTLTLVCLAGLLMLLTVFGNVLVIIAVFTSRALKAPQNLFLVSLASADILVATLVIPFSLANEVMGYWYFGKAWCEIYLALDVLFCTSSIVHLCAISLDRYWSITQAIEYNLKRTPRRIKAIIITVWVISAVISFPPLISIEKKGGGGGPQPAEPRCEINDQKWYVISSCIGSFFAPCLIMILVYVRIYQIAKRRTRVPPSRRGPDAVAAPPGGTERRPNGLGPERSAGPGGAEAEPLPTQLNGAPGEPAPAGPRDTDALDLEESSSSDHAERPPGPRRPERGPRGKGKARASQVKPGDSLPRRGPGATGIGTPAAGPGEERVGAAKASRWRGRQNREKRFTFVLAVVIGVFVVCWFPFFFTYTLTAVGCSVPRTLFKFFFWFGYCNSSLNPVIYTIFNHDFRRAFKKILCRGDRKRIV
UniProt P63096, residues 2-354: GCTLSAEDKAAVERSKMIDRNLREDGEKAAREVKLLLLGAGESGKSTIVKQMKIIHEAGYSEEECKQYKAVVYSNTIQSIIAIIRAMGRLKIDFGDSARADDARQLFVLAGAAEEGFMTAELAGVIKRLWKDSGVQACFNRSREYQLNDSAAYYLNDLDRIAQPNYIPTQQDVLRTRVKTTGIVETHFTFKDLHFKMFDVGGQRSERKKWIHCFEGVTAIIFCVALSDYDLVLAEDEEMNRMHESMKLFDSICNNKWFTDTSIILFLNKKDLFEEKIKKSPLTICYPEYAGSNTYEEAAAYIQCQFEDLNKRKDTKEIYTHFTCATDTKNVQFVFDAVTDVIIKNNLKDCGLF

Columns and labels:
[1] = molecular target: CGRP-R (CRLR-YFP+RAMP1) (human) (UniProt Q16602+O60894); experiment: BRET, living cells, 10 µM CGRP
α2AAR-Venus (human) [2] = molecular target: α2AAR-Venus (human) (UniProt P08913); experiment: real-time BRET1, living cells
α2AAR-Venus (human) [3] = molecular target: α2AAR-Venus (human) (UniProt P08913); experiment: BRET1 and BRET2 measured in the same cells (Gαi1-91Rluc, α2AAR-Venus, GFP10-Gγ2)
α2AAR-GFP10 (human) = α2AAR-GFP10 (human) (UniProt P08913); experiment: BRET2, HEK293T cells, α-adrenergic ligands

| binding [1] | binding (α2AAR-Venus (human) [2]) | binding (α2AAR-Venus (human) [3]) | binding (α2AAR-GFP10 (human)) | Substance |
| --- | --- | --- | --- | --- |
| binds | binds |  |  | Gαi1-122Rluc (from UniProt P63096 1-122; P27652 1-311; P63096 123-354) |
| binds | binds | binds |  | Gαi1-91Rluc (from UniProt P63096 1-91; P27652 1-311; P63096 92-354) |
|  |  |  | binds | Gαi1-Rluc (from UniProt P63096 2-354) |
